Assay results taken from PMC12563882.

Amino acid sequences for entries named in this document (tags omitted).
UniProt Q09161: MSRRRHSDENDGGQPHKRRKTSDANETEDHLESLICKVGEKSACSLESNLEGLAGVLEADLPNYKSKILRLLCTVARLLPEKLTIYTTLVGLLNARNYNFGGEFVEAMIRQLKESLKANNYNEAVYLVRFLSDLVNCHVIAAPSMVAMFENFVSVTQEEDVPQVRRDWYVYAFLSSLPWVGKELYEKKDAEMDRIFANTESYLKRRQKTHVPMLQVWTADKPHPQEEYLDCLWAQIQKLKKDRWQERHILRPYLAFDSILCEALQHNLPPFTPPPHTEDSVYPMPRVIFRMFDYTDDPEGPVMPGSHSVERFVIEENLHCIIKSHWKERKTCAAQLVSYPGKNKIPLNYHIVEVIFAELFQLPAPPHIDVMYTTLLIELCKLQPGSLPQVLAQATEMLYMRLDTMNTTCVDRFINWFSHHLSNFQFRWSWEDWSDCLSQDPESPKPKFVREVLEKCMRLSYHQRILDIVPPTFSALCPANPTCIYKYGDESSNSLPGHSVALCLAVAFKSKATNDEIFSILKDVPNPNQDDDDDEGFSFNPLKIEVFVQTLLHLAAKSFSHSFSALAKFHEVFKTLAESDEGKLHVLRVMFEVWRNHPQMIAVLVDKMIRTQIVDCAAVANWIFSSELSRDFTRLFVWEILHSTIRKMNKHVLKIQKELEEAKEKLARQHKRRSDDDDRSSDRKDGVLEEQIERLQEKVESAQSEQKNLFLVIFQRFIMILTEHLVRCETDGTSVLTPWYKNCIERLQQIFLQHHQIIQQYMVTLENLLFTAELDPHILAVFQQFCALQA
UniProt Q15717: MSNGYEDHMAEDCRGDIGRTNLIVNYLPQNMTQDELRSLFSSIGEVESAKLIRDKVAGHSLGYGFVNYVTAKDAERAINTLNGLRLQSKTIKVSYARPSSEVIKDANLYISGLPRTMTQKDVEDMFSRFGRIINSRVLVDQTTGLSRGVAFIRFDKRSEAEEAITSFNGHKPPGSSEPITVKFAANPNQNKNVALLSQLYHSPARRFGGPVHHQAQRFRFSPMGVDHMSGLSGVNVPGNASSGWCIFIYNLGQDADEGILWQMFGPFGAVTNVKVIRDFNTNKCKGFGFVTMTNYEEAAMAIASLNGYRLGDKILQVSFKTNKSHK
UniProt Q96A72: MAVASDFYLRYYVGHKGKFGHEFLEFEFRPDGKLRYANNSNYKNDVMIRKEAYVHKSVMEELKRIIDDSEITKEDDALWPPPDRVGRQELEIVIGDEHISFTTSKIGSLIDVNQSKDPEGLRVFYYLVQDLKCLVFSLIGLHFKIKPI
UniProt O75643: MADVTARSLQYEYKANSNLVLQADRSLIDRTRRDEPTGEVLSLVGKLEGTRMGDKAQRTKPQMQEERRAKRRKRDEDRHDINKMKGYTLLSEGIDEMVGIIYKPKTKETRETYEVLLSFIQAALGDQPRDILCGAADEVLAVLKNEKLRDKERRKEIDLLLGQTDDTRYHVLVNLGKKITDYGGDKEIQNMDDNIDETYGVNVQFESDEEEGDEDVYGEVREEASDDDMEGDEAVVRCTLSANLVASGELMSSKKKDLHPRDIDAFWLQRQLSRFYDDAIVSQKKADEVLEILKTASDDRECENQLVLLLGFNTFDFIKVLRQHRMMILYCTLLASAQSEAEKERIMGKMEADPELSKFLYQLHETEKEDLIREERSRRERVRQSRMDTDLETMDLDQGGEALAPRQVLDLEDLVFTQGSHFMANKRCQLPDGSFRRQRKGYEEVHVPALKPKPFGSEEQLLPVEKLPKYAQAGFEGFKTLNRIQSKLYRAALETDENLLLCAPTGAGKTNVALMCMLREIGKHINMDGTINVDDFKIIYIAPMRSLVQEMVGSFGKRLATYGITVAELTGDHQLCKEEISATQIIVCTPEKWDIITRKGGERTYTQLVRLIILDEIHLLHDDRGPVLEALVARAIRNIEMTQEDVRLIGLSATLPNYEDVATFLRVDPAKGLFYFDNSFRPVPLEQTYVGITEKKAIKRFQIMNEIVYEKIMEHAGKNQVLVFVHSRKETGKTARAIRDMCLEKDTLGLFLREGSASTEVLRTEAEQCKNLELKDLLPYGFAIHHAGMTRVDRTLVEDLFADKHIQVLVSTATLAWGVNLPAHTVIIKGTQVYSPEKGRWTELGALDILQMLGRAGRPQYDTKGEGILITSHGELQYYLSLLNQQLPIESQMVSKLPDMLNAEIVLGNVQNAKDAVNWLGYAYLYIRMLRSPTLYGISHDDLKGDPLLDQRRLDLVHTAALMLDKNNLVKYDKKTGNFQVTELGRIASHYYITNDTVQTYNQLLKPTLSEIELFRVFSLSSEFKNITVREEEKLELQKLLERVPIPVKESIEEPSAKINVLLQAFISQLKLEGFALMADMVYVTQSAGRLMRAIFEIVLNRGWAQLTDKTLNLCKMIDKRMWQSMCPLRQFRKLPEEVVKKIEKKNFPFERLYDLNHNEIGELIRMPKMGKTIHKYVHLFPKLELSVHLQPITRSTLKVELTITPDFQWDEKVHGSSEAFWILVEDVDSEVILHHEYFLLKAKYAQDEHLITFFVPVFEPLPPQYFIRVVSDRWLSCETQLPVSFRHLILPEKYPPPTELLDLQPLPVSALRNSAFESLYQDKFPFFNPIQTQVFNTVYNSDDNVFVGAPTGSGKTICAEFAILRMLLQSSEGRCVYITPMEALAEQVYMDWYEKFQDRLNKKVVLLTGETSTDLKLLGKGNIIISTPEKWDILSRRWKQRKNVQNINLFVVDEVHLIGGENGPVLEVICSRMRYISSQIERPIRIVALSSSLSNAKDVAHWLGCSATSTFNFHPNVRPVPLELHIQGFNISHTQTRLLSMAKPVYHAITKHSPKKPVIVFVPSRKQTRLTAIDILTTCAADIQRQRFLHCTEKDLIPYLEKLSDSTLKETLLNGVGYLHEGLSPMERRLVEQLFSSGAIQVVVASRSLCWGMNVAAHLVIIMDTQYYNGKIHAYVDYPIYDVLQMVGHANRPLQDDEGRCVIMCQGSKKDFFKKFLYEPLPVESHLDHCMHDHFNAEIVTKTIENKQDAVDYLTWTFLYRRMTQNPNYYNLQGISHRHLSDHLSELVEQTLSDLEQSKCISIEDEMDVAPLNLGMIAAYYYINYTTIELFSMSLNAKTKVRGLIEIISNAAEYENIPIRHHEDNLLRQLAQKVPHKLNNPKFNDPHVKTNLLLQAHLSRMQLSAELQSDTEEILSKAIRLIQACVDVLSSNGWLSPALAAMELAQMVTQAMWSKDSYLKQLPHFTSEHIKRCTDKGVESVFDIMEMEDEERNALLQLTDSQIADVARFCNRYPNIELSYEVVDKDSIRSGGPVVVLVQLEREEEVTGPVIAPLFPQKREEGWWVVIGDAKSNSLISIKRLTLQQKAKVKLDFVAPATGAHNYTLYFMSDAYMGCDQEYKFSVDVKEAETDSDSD

T1: myc-BirA*-SAP18 fusion protein (UniProt O00422)
T1 sequence: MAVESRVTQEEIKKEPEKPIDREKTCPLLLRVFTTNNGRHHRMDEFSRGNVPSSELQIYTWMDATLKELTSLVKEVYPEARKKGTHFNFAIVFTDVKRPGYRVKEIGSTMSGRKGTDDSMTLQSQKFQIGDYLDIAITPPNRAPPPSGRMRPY

B1: PRP19 complex-associated factor SNW1 (protein, UniProt Q13573 1-536)
chain: MALTSFLPAPTQLSQDQLEAEEKARSQRSRQTSLVSSRREPPPYGYRKGWIPRLLEDFGDGGAFPEIHVAQYPLDMGRKKKMSNALAIQVDSEGKIKYDAIARQGQSKDKVIYSKYTDLVPKEVMNADDPDLQRPDEEAIKEITEKTRVALEKSVSQKVAAAMPVRAADKLAPAQYIRYTPSQQGVAFNSGAKQRVIRMVEMQKDPMEPPRFKINKKIPRGPPSPPAPVMHSPSRKMTVKEQQEWKIPPCISNWKNAKGYTIPLDKRLAADGRGLQTVHINENFAKLAEALYIADRKAREAVEMRAQVERKMAQKEKEKHEEKLREMAQKARERRAGIKTHVEKEDGEARERDEIRHDRRKERQHDRNLSRAAPDKRSKLQRNENRDISEVIALGVPNPRTSNEVQYDQRLFNQSKGMDSGFAGGEDEIYNVYDQAWRGGKDMAQSIYRPSKNLDKDMYGDDLEARIKTNRFVPDKEFSGSDRRQRGREGPVQFEEDPFGLDKFLEEAKQHGGSKRPSDSSRPKEHEHEGKKRRKE
B2: RNPS1 (protein, UniProt Q15287 1-305)
chain: MDLSGVKKKSLLGVKENNKKSSTRAPSPTKRKDRSDEKSKDRSKDKGATKESSEKDRGRDKTRKRRSASSGSSSTRSRSSSTSSSGSSTSTGSSSGSSSSSASSRSGSSSTSRSSSSSSSSGSPSPSRRRHDNRRRSRSKSKPPKRDEKERKRRSPSPKPTKVHIGRLTRNVTKDHIMEIFSTYGKIKMIDMPVERMHPHLSKGYAYVEFENPDEAEKALKHMDGGQIDGQEITATAVLAPWPRPPPRRFSPPRRMLPPPPMWRRSPPRMRRRSRSPRRRSPVRRRSRSPGRRRHRSRSSSNSSR
B3: SRSF5 (protein, UniProt Q13243 1-272)
chain: MSGCRVFIGRLNPAAREKDVERFFKGYGRIRDIDLKRGFGFVEFEDPRDADDAVYELDGKELCSERVTIEHARARSRGGRGRGRYSDRFSSRRPRNDRRNAPPVRTENRLIVENLSSRVSWQDLKDFMRQAGEVTFADAHRPKLNEGVVEFASYGDLKNAIEKLSGKEINGRKIKLIEGSKRHSRSRSRSRSRTRSSSRSRSRSRSRSRKSYSRSRSRSRSRSRSKSRSVSRSPVPEKSQKRGSSSRSKSPASVDRQRSRSRSRSRSVDSGN
B4: SRSF6 (protein, UniProt Q13247 1-344)
chain: MPRVYIGRLSYNVREKDIQRFFSGYGRLLEVDLKNGYGFVEFEDSRDADDAVYELNGKELCGERVIVEHARGPRRDRDGYSYGSRSGGGGYSSRRTSGRDKYGPPVRTEYRLIVENLSSRCSWQDLKDFMRQAGEVTYADAHKERTNEGVIEFRSYSDMKRALDKLDGTEINGRNIRLIEDKPRTSHRRSYSGSRSRSRSRRRSRSRSRRSSRSRSRSISKSRSRSRSRSKGRSRSRSKGRKSRSKSKSKPKSDRGSHSHSRSRSKDEYEKSRSRSRSRSPKENGKGDIKSKSRSRSQSRSNSPLPVPPSKARSVSPPPKRATSRSRSRSRSKSRSRSRSSSRD
B5: SRSF7 (protein, UniProt Q16629 1-238)
chain: MSRYGRYGGETKVYVGNLGTGAGKGELERAFSYYGPLRTVWIARNPPGFAFVEFEDPRDAEDAVRGLDGKVICGSRVRVELSTGMPRRSRFDRPPARRPFDPNDRCYECGEKGHYAYDCHRYSRRRRSRSRSRSHSRSRGRRYSRSRSRSRGRRSRSASPRRSRSISLRRSRSASLRRSRSGSIKGSRYFQSPSRSRSRSRSISRPRSSRSKSRSPSPKRSRSPSGSPRRSASPERMD

molecular target: T1, myc-BirA*-SAP18 fusion protein; assay: proximity labelling + affinity purification with mass spectrometry; double-stable Flp-In-293 cells with BirA*-SAP18 and the MINX-GG-6MS2 reporter, transfected with FLAG-MS2cp; 2 ug/mL tetracycline 48 h, 50 uM biotin 24 h; RNP complex on the reporter RNA captured on anti-FLAG M2 magnetic beads in RIP buffer (25 mM Tris pH 8.0, 150 mM NaCl, 1 mM EDTA, 1% deoxycholate, 5% glycerol), 4 °C; enriched, biotinylated proteins identified by mass spectrometry against a control IP without FLAG-MS2cp

binding, binds:
cap-binding complex protein NCBP1 (from UniProt Q09161 1-790)
ELAVL1 (from UniProt Q15717 1-326)
MAGOHB (from UniProt Q96A72 1-148)
SNRNP200 (from UniProt O75643 1-2136)
B1
B2
B3
B4
B5

No constants are given. Whether binding was seen depends on the method and setting. Binding seen in cells or lysates may run through a third protein. These calls come from enrichment with a bait or labelling near it, and not all partners need be listed. Sequences can lack the tags named with a protein.
